A: 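Assay on Mycobacterium tuberculosis, filed only as a heat shock assay from Cornell; the read-out is not stated. The concentration is filed as 10 mM, unlikely as a test dose, so the dose is not known. Direction is inferred from retests: higher values go with stronger inhibition. Of about 69,000 compounds tested this way, about 930 (1.4%) reached 50% or more in at least one test.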
B: 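Methionyl-tRNA synthetase (putative), Leishmania donovani (UniProt E9BF75). Primary screen of methionyl-tRNA synthetase; the read-out is not stated. The test concentration is not given. The values are filed as inhibition. About 68,000 compounds were tested under these conditions; 0.035% (about 24) showed 50% or more at least once.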
C: 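Whole-cell assay for inhibitors of Mycobacterium tuberculosis growth, labelled Cornell in the record; the read-out is not stated. The concentration is filed as 10 mM, unlikely as a test dose, so the dose is not known. Higher means stronger inhibition (inferred from two other growth screens of the library). Size under these conditions: about 53,000 compounds, about 900 of them at 50% or above in at least one test.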

Amino acid sequences for entries named in this document (tags omitted).
UniProt E9BF75, entry or part of it: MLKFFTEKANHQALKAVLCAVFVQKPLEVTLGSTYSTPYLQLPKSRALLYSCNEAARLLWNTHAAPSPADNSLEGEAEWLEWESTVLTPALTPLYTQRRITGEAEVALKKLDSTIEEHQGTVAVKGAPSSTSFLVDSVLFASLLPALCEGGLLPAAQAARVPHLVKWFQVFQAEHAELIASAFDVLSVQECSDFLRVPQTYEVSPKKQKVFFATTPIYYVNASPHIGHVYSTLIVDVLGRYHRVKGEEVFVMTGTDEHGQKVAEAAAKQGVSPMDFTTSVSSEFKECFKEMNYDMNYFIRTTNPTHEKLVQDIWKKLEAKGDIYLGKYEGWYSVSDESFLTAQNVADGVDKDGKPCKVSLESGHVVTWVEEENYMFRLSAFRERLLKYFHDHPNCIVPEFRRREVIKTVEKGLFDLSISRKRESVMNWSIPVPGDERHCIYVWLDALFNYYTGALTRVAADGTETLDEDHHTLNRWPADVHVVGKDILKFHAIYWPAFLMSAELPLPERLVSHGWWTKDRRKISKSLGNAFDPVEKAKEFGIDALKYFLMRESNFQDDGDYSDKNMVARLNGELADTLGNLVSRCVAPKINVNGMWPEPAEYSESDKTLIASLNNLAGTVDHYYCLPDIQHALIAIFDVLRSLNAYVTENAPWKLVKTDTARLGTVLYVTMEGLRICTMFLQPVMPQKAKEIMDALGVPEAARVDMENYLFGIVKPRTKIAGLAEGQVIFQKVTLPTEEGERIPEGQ

Results are percentages, as filed.
The controls that fix the scale are not given in the record; negative values are as filed.
Compounds were drawn at random from those tested, without regard to their results.

For COc1cc(C(=O)NCCc2cccc(C)c2)on1 the result was A: 48.74%; B: 9.375%. Cc1nc(C2CCCN(C(=O)c3ccc(N4CCCC4)nn3)C2)no1 (stereo not shown) gave A: 1.505%; B: 9.036%. Result for Cc1nonc1CC(=O)N1C[C@@H]2CC[C@H](C1)N(Cc1ccccc1)C2=O was B: 6.884%. With Cn1nc(C2CCN(CC(=O)NC3CC3)CC2)n(-c2ccccc2)c1=O the screen gave A: 7.626%; B: 11.59%; C: -22.88%. With O=C(O)C(F)(F)F.[H][C@@]12CCN(C(=O)c3cscn3)[C@@]1([H])CCN2C1CCOCC1 the screen gave A: 11.2%; C: 16.13%. For COc1nc2c(cc1C(=O)N1CCCOC(Cn3cccn3)C1)CCC2 (stereo not shown) the result was A: 4.975%; B: 6.406%; C: -14.96%.

Result for O=C(NCC(F)(F)F)C1CCC(=O)N(C2CCCC2)C1 (stereo not shown) was A: -6.758%. With CS(=O)(=O)NCCC(=O)N1CCC(Cc2ccc(CO)cc2)C1 (stereo not shown) the screen gave A: -2.059%; B: 11.61%; C: -6.761%. COc1cc(C2CC(=O)Oc3cc(C)[nH]c(=O)c32)ccc1OC(F)F (stereo not shown) read A: -7.278%; B: 1.245%. CN(Cc1ncnn1C)C(=O)Nc1ccc(OC(F)F)cc1 read A: 1.851%; B: 15.84%; C: 1.591%. With O=C(O)C(F)(F)F.[H][C@@]12C[C@H](C(=O)NC3CCC3)[C@@]([H])(CN(CC3CC3)C1)O2 the screen gave A: 18.28%; C: 10.05%. CC(C)N(Cc1cccc(Cl)c1)Cc1nc2c(cnn2C)c(=O)[nH]1 read A: -8.271%; B: 17.13%.

Result for COCCNC(=O)C[C@@H]1COC[C@H]2CN(Cc3cccnc3)C[C@@H]12 was B: 9.341%. COC(=O)N1CCCC(C(=O)N2CCCCC2)C1 (stereo not shown) gave A: -33.21%; B: 12.78%. CCc1ccc(C2c3nc[nH]c3CCN2Cc2nccn2CC)nc1 (stereo not shown) read A: -14.33%; B: 2.88%; C: -19.93%. Result for O=C1NCCN1C1CCN(Cc2nc(-c3ccc(F)cc3)no2)CC1 was A: -1.479%; B: 12.82%; C: -0.9096%. Result for CCc1ccc(C(=O)N2CCN(CC(O)c3ccccc3)CC2)o1 (stereo not shown) was A: -9.414%; B: 10.61%. CCCc1nc(C)cc(NC(C)Cc2cnccn2)n1 (stereo not shown) gave A: -12.39%; B: 8.04%; C: 4.652%.

Result for CN1CC(=O)N(c2ccsc2)CC12CCN(C(=O)c1ccccc1)C2 (stereo not shown) was B: 18.45%. For Cn1cc(C(=O)N2C[C@@H]3COC[C@]3(COCc3cccnc3)C2)cn1 the result was B: 13.73%. O=C(CCCn1cncn1)N1CCCC1c1nc(-c2ccccc2)no1 (stereo not shown) gave A: 7.473%; B: 6.923%; C: 25.89%. CCN(CC)C(=O)C1CCC2(CCNCC2)CO1.Cl (stereo not shown) gave A: 5.528%; C: 7.526%. Result for CSC1(CNc2ccc(Br)cn2)CCOCC1 was A: -6.646%; B: 12.63%; C: 32.73%. Result for CC(C)(C)c1nc(CN2CCCC(c3noc(C4CC4)n3)C2)no1 (stereo not shown) was A: -0.5356%; B: 15.03%.

CSc1cccc(CN(C)C(=O)Cn2ncc(N3CCCC3)cc2=O)c1 read A: 13.68%; B: 6.65%; C: -0.285%. CNC(=O)COc1ccc(CNc2c(Cl)cccc2C#N)cc1 gave A: -17.82%; B: 11.54%; C: 7.53%. Result for CN(Cc1ccncc1)C1CC2(CCN(c3ncccn3)CC2)C1.O=C(O)C(F)(F)F.O=C(O)C(F)(F)F.O=C(O)C(F)(F)F was A: -19.12%; C: -21.44%. CN1CCCN(C(=O)c2cccn2-c2ccc3c(c2)OCCO3)CC1 read A: -13.19%; B: 4.673%; C: 25.35%. C=C(C)COc1ccccc1C(=O)NCCCc1nnn[nH]1 read A: -7.013%; B: 17.49%. Result for O=C(NCC1CCSCC1)N(CCCO)C1CCc2ccccc21 (stereo not shown) was A: -9.674%; B: -6.993%.

For O=C(O)C(F)(F)F.[H][C@@]12CCN(Cc3ccccc3F)[C@]1([H])CC[C@@H](C(=O)NC)O2 the result was A: 8.545%; C: -11.16%. With CC(NCc1nnc2n1CCCC2)C(=O)N1CCc2sccc2C1 (stereo not shown) the screen gave A: -26.23%; B: 20.77%. CCc1nnsc1C(=O)N1CCCN(Cc2ccc(F)cc2)CC1 read A: 18.58%; B: 9.278%; C: 4.075%. Result for Cc1ccc(-c2nc(CN3CCC(N4CCNC4=O)CC3)co2)cc1 was A: -25.48%; B: 11.45%; C: 0.5995%. Cc1cccc(CN2CC[C@@H]3[C@@H]2CCN3Cc2cccs2)n1 read B: 11.73%. Cc1noc(C)c1C(=O)N1CCCN(Cc2cscn2)CC1 gave A: 16.8%; B: 7.182%.

O=C(CSCC1CC1)N1CCc2[nH]nc(COc3ccccc3)c2C1 gave A: 14.09%; B: 21.32%; C: -22.78%. Result for COCC(=O)NCc1cc(=O)n2c(n1)CN(C)CCC2 was B: 16.54%.

Some entries from above, unchanged:

- COCC(=O)NCc1cc(=O)n2c(n1)CN(C)CCC2 : B: 16.54%
- O=C(CCCn1cncn1)N1CCCC1c1nc(-c2ccccc2)no1 (stereo not shown) : A: 7.473%; B: 6.923%; C: 25.89%
- COC(=O)N1CCCC(C(=O)N2CCCCC2)C1 (stereo not shown) : A: -33.21%; B: 12.78%
- CN1CCCN(C(=O)c2cccn2-c2ccc3c(c2)OCCO3)CC1 : A: -13.19%; B: 4.673%; C: 25.35%

Data taken from ChEMBL document CHEMBL3988442, “University of Dundee, Small-Polar-MMV Screening Library” (2021).